# Patent US20170143835A1, “SUBSTITUTED ANIONIC COMPOUNDS CONSISTING OF A BACKBONE MADE UP OF A DISCRETE NUMBER OF SACCHARIDE UNITS” (ADOCIA, priority 2012, published 2017)
# By UniProt entry, the sequences of proteins in these tests, tags left out. Residues count along the entry.
# UniProt P02769, 25-607: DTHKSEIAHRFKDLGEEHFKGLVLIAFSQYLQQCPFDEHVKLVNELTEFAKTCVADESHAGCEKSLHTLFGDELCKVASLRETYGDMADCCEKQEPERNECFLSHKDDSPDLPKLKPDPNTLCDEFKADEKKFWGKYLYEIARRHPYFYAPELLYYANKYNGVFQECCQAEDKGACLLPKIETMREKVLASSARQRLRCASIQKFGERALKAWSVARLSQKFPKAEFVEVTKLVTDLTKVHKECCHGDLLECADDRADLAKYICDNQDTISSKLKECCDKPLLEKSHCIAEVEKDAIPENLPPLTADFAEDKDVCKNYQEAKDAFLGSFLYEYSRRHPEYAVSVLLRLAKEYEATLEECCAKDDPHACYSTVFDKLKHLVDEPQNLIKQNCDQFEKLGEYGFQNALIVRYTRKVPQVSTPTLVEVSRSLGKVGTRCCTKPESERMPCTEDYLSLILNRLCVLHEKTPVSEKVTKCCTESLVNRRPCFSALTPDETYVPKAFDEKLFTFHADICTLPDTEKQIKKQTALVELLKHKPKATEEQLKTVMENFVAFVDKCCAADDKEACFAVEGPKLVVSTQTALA
# Some results were stated once for a whole list of compounds, not compound by compound.
# Target: serum albumin (BSA) (Bos taurus, UniProt P02769)
# Assay: Fluorescence test for interaction with albumin
# Assay type: binding, bovine
# Conditions: compound/BSA weight ratio of 1
# Description: The test carried out is a “fluorescence” test with albumin, which makes it posible, by measuring the variations in fluorescence of albumin, to verify whether an interaction exists between the compound tested and albumin.
# The compound/albumin solutions are prepared from stock solutions of compounds and of serum albumin (BSA) by mixing the appropriate volumes in order to obtain a fixed BSA concentration at 0.5 mg/ml and compound/BSA weight ratios of 1, 5 and 10. These solutions are prepared in a PBS buffer at pH 7.4.
# 200 μl of the various compound/BSA solutions are introduced into a 96-well plate. The fluorescence measurements are carried out at room temperature (20° C.) with an EnVision® fluorescence spectrometer (PerkinElmer). […] This corresponds to the fluorescence of the tryptophan residues of albumin (Ruiz-Peña M. et al., M, A. Physico-chemical studies of molecular interactions between non-ionic surfactants and bovine serum albumin, Colloids Surf. B Biointerfaces 2010, 75, 282-289). […] If this ratio is less than 1, this means that the compound induces partial quenching of the albumin fluorescence linked to a change in environment of the tryptophan residues. […] It was verified, as a control, that, for all the compounds tested, the fluorescence of the compound alone is negligible considering the fluorescence of albumin (fluorescence (compound) <2% fluorescence (albumin)).
substance,measurement,value
Sodium maltotriosesuccinate Functionalized with dilauryl aspartate [Compound 22],fluorescence ratio F/F0,< 0.5
